# The list is a part of this screen's results and no random one: it gathers tests that were run many times, whatever their T/C, doses with no T/C, and many T/C values between a quarter and a half above the control. Other doses and runs of a compound stand elsewhere. T/C: endpoint of the treated group in % of that of the vehicle group. Some doses have a count of surviving animals in place of a T/C: the source holds a T/C of zero for them, seemingly a mark for toxic or unscored doses. Some survivor counts are full or nearly so, which does not show that the dose was tolerated: survival well below the control is almost never listed, so the zero probably covers shortened survival too. Counts of survivors are from the toxicity check (mostly the fifth day) where no day follows; animals may have died later. Schedule codes are those of the source, read here as Q, the interval in days (D) or hours (H), X, the number of doses. For survival time, this PubChem deposit counts one and a half times the control or more as active, and values a quarter to a half above the control carry no call in these data; other NCI protocols may use other cut-offs. Some entries hold several experiments; the results are listed from low to high. Some T/C values carry the count of animals alive at the toxicity check (mostly the fifth day); without a count, all were alive then.
# Tested on: BDF1 mice, P388 leukemia ip, median survival T/C
# Assay: NCI In Vivo Anticancer Drug Screen. Data for tumor model P388 Leukemia (intraperitoneal) in B6D2F1 (BDF1) mice
# Conditions: T/C endpoint: median survival time, higher T/C = longer survival
# In short: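 Each value expresses how treatment altered survival: treated-mouse outcome over vehicle-mouse outcome, both groups bearing the transplanted tumour.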
# [1] = dose: 400.0 mg/kg/injection, schedule: Q04DX003 (ip), vehicle: saline with Tween-80
# [2] = dose: 400.0 mg/kg/injection, schedule: Q01DX009 (ip), vehicle: saline
compound,measurement,setting,value
CC12CCC(C1)C(C)(C)C2NCCCN1C(=O)c2ccc3c4c(ccc(c24)C1=O)C(=O)N(CCCNC1C2(C)CCC(C2)C1(C)C)C3=O (stereo not given),survivor count,"dose: 50.0 mg/kg/injection, schedule: Q01DX009 (ip), vehicle: Klucel (hydroxypropylcellulose) (HPC)",6 of 6
same,survivor count,"dose: 100.0 mg/kg/injection, schedule: Q01DX009 (ip), vehicle: Klucel (hydroxypropylcellulose) (HPC)",3 of 6
C1=CCONC1,survivor count,[1],0 of 6
CCCCN(C)C(=S)N/N=C(\C)c1ccccn1,survivor count,"dose: 50.0 mg/kg/injection, schedule: Q01DX009 (ip), vehicle: saline with Tween-80",3 of 6
same,survivor count,"dose: 100.0 mg/kg/injection, schedule: Q01DX009 (ip), vehicle: saline with Tween-80",0 of 6
same,survivor count,"dose: 200.0 mg/kg/injection, schedule: Q01DX009 (ip), vehicle: saline with Tween-80",0 of 6
N=c1ccn2c(n1)OC1C(O)C(CO)OC12 (stereo not given),T/C,"dose: 39.0 mg/kg/injection, schedule: Q01DX009 (ip), vehicle: water, evaluated on day 7",178 and 195 % of control
same,T/C,"dose: 39.0 mg/kg/injection, schedule: Q01DX009 (ip), vehicle: water, evaluated on day 62",178 [7 of 8 alive] and 195 % of control
same,T/C,"dose: 65.0 mg/kg/injection, schedule: Q01DX009 (ip), vehicle: water, evaluated on day 7",181 and 192 % of control
same,T/C,"dose: 65.0 mg/kg/injection, schedule: Q01DX009 (ip), vehicle: water, evaluated on day 62",181 and 192 % of control
same,T/C,"dose: 108.0 mg/kg/injection, schedule: Q01DX009 (ip), vehicle: water, evaluated on day 7",195 and 225 % of control
same,T/C,"dose: 108.0 mg/kg/injection, schedule: Q01DX009 (ip), vehicle: water, evaluated on day 62",195 and 225 % of control
same,T/C,"dose: 180.0 mg/kg/injection, schedule: Q01DX009 (ip), vehicle: water, evaluated on day 7",209 and 219 % of control
same,T/C,"dose: 180.0 mg/kg/injection, schedule: Q01DX009 (ip), vehicle: water, evaluated on day 62",209 and 219 % of control
same,T/C,"dose: 300.0 mg/kg/injection, schedule: Q01DX009 (ip), vehicle: water, evaluated on day 7",219 and 236 % of control
same,T/C,"dose: 300.0 mg/kg/injection, schedule: Q01DX009 (ip), vehicle: water, evaluated on day 62",219 and 236 % of control
same,T/C,"dose: 500.0 mg/kg/injection, schedule: Q01DX009 (ip), vehicle: water, evaluated on day 7",117 and 221 % of control
same,T/C,"dose: 500.0 mg/kg/injection, schedule: Q01DX009 (ip), vehicle: water, evaluated on day 62",221 % of control
same,survivor count,"dose: 500.0 mg/kg/injection, schedule: Q01DX009 (ip), vehicle: water",5 of 8
COC(C)C(Br)C(=O)O (stereo not given),survivor count,[2],6 of 6
Nc1nc(SCc2cccc(Br)c2)c2ncn(C3OC(CO)C(O)C3O)c2n1 (stereo not given),survivor count,[1],0 of 6
C/C(=N/NC(=O)c1ccccc1)c1ccc(Cl)cc1Cl,survivor count,"dose: 40.0 mg/kg/injection, schedule: Q01DX009 (ip), vehicle: Klucel (hydroxypropylcellulose) (HPC)",5 of 6
same,survivor count,"dose: 135.0 mg/kg/injection, schedule: Q04DX003 (ip), vehicle: Klucel (hydroxypropylcellulose) (HPC)",5 of 6
ClCCCCCCCCc1ccccc1,T/C,"dose: 100.0 mg/kg/injection, schedule: Q04DX003 (ip), vehicle: saline with Tween-80",127 % of control
same,T/C,"dose: 150.0 mg/kg/injection, schedule: Q04DX003 (ip), vehicle: saline with Tween-80",127 % of control
same,T/C,"dose: 200.0 mg/kg/injection, schedule: Q04DX003 (ip), vehicle: saline with Tween-80",127 % of control
same,T/C,[2],125 % of control
same,T/C,[1],131 % of control
OCCNCCN1CCN(CCCN2c3ccccc3Sc3ccc(C(F)(F)F)cc32)CC1,T/C,"dose: 12.5 mg/kg/injection, schedule: Q04DX003 (ip), vehicle: saline",135 % of control
same,survivor count,"dose: 50.0 mg/kg/injection, schedule: Q04DX003 (ip), vehicle: saline",6 of 6
COc1ccc(/C=C/c2ccc3ccccc3n2)c(OC)c1,survivor count,[1],6 of 6
CC(C)=CCc1cc(O)ccc1O,T/C,"dose: 1.56 mg/kg/injection, schedule: Q01DX009 (ip), vehicle: saline with Tween-80",131 % of control
same,T/C,"dose: 3.12 mg/kg/injection, schedule: Q01DX009 (ip), vehicle: saline with Tween-80",138 % of control
same,T/C,"dose: 12.5 mg/kg/injection, schedule: Q01DX009 (ip), vehicle: saline with Tween-80",126 % of control
N#CCCCCNC(=O)C1CCC(=O)N1 (stereo not given),survivor count,"dose: 200.0 mg/kg/injection, schedule: Q04DX003 (ip), vehicle: saline",6 of 6

# Reference: PubChem BioAssay AID328 (DTP/NCI, 2004)
